From publication PMC7515921, “MFSD7C switches mitochondrial ATP synthesis to thermogenesis in response to heme” (Nature Communications, 2020)
Results are given in words; binding and its absence hold for the method and conditions named. Binding seen in cells or lysates may run through a third protein. Here binding means that the protein was enriched with, or labelled near, the bait; the list need not be complete. Sequences can lack the tags named with a protein.

T1: MFSD7C tagged with both Myc and FLAG epitopes (murine) (mouse) (UniProt Q91X85)
T1 sequence: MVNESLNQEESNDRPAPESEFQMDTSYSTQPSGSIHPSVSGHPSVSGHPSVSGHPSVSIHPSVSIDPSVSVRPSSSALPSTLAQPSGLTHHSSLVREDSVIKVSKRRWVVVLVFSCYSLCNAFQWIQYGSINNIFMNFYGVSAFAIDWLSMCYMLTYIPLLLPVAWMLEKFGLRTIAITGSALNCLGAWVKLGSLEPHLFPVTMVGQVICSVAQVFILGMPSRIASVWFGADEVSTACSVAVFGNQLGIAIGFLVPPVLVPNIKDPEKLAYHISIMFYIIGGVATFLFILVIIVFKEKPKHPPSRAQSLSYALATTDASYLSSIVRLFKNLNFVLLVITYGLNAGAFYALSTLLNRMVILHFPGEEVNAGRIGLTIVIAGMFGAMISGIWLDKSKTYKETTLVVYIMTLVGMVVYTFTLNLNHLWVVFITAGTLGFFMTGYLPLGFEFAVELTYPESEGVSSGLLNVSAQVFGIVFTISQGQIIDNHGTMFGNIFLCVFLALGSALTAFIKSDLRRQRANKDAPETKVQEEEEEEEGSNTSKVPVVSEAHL

B1: ATP5c1 (endogenous) (protein, UniProt Q91VR2 26-298)
chain: ATLKDITRRLKSIKNIQKITKSMKMVAAAKYARAERELKPARVYGTGSLALYEKADIKAPEDKKKHLIIGVSSDRGLCGAIHSSVAKQMKNEVAALTAAGKEVMIVGVGEKIKGILYRTHSDQFLVSFKDVGRKPPTFGDASVIALELLNSGYEFDEGSIIFNQFKSVISYKTEEKPIFSLNTIATAETMSIYDDIDADVLQNYQEYNLANLIYYSLKESTTSEQSARMTAMDNASKNASDMIDKLTLTFNRTRQAVITKELIEIISGAAALD
B2: Slc25a5 (protein, UniProt P51881 1-298)
chain: MTDAAVSFAKDFLAGGVAAAISKTAVAPIERVKLLLQVQHASKQITADKQYKGIIDCVVRIPKEQGVLSFWRGNLANVIRYFPTQALNFAFKDKYKQIFLGGVDKRTQFWRYFAGNLASGGAAGATSLCFVYPLDFARTRLAADVGKAGAEREFKGLGDCLVKIYKSDGIKGLYQGFNVSVQGIIIYRAAYFGIYDTAKGMLPDPKNTHIFISWMIAQSVTAVAGLTSYPFDTVRRRMMMQSGRKGTDIMYTGTLDCWRKIARDEGSKAFFKGAWSNVLRGMGGAFVLVLYDEIKKYT
B3: Sec22b (protein, UniProt O08547 1-215)
chain: MVLLTMIARVADGLPLAASMQEDEQSGRDLQQYQSQAKQLFRKLNEQSPTRCTLEAGAMTFHYIIEQGVCYLVLCEAAFPKKLAFAYLEDLHSEFDEQHGKKVPTVSRPYSFIEFDTFIQKTKKLYIDSRARRNLGSINTELQDVQRIMVANIEEVLQRGEALSALDSKANNLSSLSKKYRQDAKYLNMRSTYAKLAAVAVFFIMLIVYVRFWWL
B4: Scamp3 (protein, UniProt O35609 1-349)
chain: MAQSRDTGNPFPDSGELDNPFQDPAVIQHRPSQQYATLDVYNPFENREPPPAYEPPAPAPAPLPPPSAPSVQSSRKLSPTEPRNYGSYSTQASAAAATAELLKKQEELNRKAEELDRRERELQHVALGGAGTRQNNWPPLPSFCPVKPCFFQDISMEIPQEFQKTVSTMYYLWMCSTLALLLNFFACLARFCVDTGSGSGFGLSMLWLLLFTPCSFVCWYRPMYKAFRSDSSFNFFVFFFIFFVQDVFFVLQAIGIPGWGFSGWVTALVVVGSKPAVAVLMLLVALLFTGIAVLGIVMLKRIHSLYRQTGASFQKAQQEFAAGVFSNPAVRTAAANAAAGAAENAFRAP
B5: Nufip2 (protein, UniProt Q5F2E7 1-692)
chain: MEEKPGQPQPQHHHSHHHPHHHPQQQQQQQSHHHHHYYFYNHSHNHHHHHHHQQPHQYLQHGAEGSPKAQPKPLKHEQKHTLQQHQETPKKKTGYGEINGNAGEREISLKSLSSDEATNPISRVLNGNQQVVETSLKQTVKTSTFGKAGIKTKNFIQKNSMDKKNGKSYENKSGETQAVDKTDTIAIPNGVITSSSGYITNGYMSKGADNDGSGSESGYTTPKKRKARRNSAKGCENLNLVQDKIMQETSVPALKQGLETLKPDYSEQKGMRVDGSKPIWKYETGPGGTSRGKPAMGDVLRKSSDIKPGLSSKKFDDRPKGKHASAAASKEDSWTLFKPPPVFPVDNSSAKIVPKISYASKVKENLNKTVQNSSVSPSSSSSSSSTGETQTQSSSRLSQVPMSALKSVTSASFSNGPVLAGTDGSVYPSGGQPLLTTAANTLTPISTGTDSVLQDMSLASAAVEQIKSSLFIYPSNMQTVLLSAQVDLPSQTDQQNLGDIFQNQWGLSFINEPSAGPETVIGKSSDHKVMEVTFQGEYPATLVSQGAEIIPSGTEHPVFPKAYELEKRTSPQVLGHILKPGTTESGALSLDPSHIGDLQKADTSSQGALVFLSKDYEIENQNPLASPTNTLLGSAKEQRYQRGLERNDSWGSFDLRAAIVYHTKEMESIWNLQKQDPKRIITYNEAMDSPDQ
B6: Unc93b (protein, UniProt Q8VCW4 1-598)
chain: MEVEPPLYPVAGAAGPQGDEDRHGVPDGPEAPLDELVGAYPNYNEEEEERRYYRRKRLGVVKNVLAASTGVTLTYGVYLGLLQMQLILHYDETYREVKYGNMGLPDIDSKMLMGINVTPIAALLYTPVLIRFFGTKWMMFLAVGIYALFVSTNYWERYYTLVPSAVALGMAIVPLWASMGNYITRMSQKYYEYSHYKEQDEQGPQQRPPRGSHAPYLLVFQAIFYSFFHLSFACAQLPMIYFLNNYLYDLNHTLINVQSCGTKSQGILNGFNKTVLRTLPRSKNLIVVESVLMAVAFLAMLMVLGLCGAAYRPTEEIDLRSVGWGNIFQLPFKHVRDFRLRHLVPFFIYSGFEVLFACTGFALGYGVCSMGLERLAYLLIAYSLGASASSVLGLLGLWLPRSVPLVAGAGLHLLLTLSLFFWAPAPRVLQHSWIFYFVAALWGVGSALNKTGLSTLLGILYEDKERQDFIFTIYHWWQAVAIFVVYLGSSLPMKAKLAVLLVTLVAAAASYLWMEQKLQQGLVPRQPRIPKPQHKVRGYRYLEEDNSDESDMEGEQGQGDCAEDEAPQAGPLGAEPAGPCRKPCPYEQALGGDGPEEQ
B7: C2orf18 (protein, UniProt Q8VE96 19-372)
chain: SINTLSAKWADNFVAEGCGGSQEHSFKHPFVQAVGMFLGEFSCLAAFYLLKCQGRRQSASSVEPQQPFNTLLFLPPALCDMTGTSIMYVALNMTSASSFQMLRGAVIIFTGLFSVAFLDRRLAPSQWLGILITIAGLVVVGLADLLSKHDSQHKLSEVITGDLLIIMAQIIIAIQMVLEEKFVYKHNIHPLQAVGIEGFFGFVILSLLLVPMFYIPTASFSGNPRGVLEDALDAFCQVGRQPLIALALLGNISSIAFFNFSGISVTKELSATTRMVLDTLRTIVIWAFTLALGWEIFYPLQILGFLILLMGTALYNGLHRPLLAFLSRRWRLPTQEGEQERLLGDSRTPINEAS
B8: Tmem165 (protein, UniProt P52875 34-323)
chain: GPEEDLSHRNQEPPAPAQQLQPQPAAVQGLEPARAEKGLTPVAPVHTNKEDAAAQTNLGFIHAFVAAISVIIVSELGDKTFFIAAIMAMRYNRLTVLAGAMLALALMTCLSVLFGYATTVIPRVYTYYVSTALFAIFGIRMLREGLKMSPDEGQEELEEVQAELKKKDEEFQRTKLLNGPDVETGTSTAIPQKKWLHFISPIFVQALTLTFLAEWGDRSQLTTIVLAAREDPYGVAVGGTVGHCLCTGLAVIGGRMIAQKISVRTVTIIGGIVFLAFAFSALFISPESGF
B9: Slc25a4 (protein, UniProt P48962 1-298)
chain: MGDQALSFLKDFLAGGIAAAVSKTAVAPIERVKLLLQVQHASKQISAEKQYKGIIDCVVRIPKEQGFLSFWRGNLANVIRYFPTQALNFAFKDKYKQIFLGGVDRHKQFWRYFAGNLASGGAAGATSLCFVYPLDFARTRLAADVGKGSSQREFNGLGDCLTKIFKSDGLKGLYQGFSVSVQGIIIYRAAYFGVYDTAKGMLPDPKNVHIIVSWMIAQSVTAVAGLVSYPFDTVRRRMMMQSGRKGADIMYTGTLDCWRKIAKDEGANAFFKGAWSNVLRGMGGAFVLVLYDEIKKYV

Target: T1, MFSD7C tagged with both Myc and FLAG epitopes (murine) (mouse)
Experiment: affinity purification with mass spectrometry; lysate of MH-S cells expressing MFSD7C-FLAG-Myc (control: GFP alone); 20 mM Tris-HCl pH 7.4, 150 mM NaCl, 0.1% NP-40, 10% glycerol; anti-FLAG beads, 3x FLAG peptide elution, then anti-Myc beads; LC-MS/MS

| binding | Binder |
| --- | --- |
| binds | B1 |
| binds | B2 |
| binds | B3 |
| binds | B4 |
| binds | B5 |
| binds | B6 |
| binds | B7 |
| binds | B8 |
| binds | B9 |
